Measured values taken from patent US20230159931A1, “TARGETING THE PALMOTYLATION/DEPALMOTYLATION CYCLE TO TREAT INFLAMMATORY DISEASES” (CORNELL UNIVERSITY, priority 2020, published 2023).
No constants are given. Whether binding was seen depends on the method and setting. For some assays here: Binding seen in cells or lysates may run through a third protein. Some binding calls cover weakened binding; strength is not graded here. Tags and fused reporters may be left off the sequences shown.

Tests used:
Flag-SMAD4, Q13485 = molecular target: T1, Flag-SMAD4, Q13485; test: protein pull down assay, HEK293T cells (FIG. 9A); settings: remark: other sources report otherwise
T1 chain: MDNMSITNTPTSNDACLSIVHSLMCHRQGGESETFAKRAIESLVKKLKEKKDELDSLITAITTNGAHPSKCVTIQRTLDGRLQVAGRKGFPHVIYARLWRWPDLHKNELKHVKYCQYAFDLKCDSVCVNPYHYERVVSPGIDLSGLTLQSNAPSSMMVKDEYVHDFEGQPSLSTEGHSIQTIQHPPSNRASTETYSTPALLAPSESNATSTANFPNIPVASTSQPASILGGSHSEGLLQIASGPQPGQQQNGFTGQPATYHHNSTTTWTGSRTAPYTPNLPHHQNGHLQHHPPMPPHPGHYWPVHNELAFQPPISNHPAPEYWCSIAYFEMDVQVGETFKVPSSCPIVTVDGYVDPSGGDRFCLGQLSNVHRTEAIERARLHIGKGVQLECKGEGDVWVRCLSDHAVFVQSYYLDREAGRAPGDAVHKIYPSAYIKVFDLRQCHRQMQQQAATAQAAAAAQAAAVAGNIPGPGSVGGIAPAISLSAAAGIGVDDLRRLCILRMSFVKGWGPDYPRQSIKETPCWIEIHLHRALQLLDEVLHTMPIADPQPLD

HA-SMAD2, Q15796 = test: Flag pull-down from HEK293T cells, western blot (FIG. 9A, 9B); settings: remark: other sources report otherwise

B1: HA-SMAD2, Q15796 1-467 (protein, UniProt Q15796 1-467, looked up, not shown: small tags and cut ends)
chain: MSSILPFTPPVVKRLLGWKKSAGGSGGAGGGEQNGQEEKWCEKAVKSLVKKLKKTGRLDELEKAITTQNCNTKCVTIPSTCSEIWGLSTPNTIDQWDTTGLYSFSEQTRSLDGRLQVSHRKGLPHVIYCRLWRWPDLHSHHELKAIENCEYAFNLKKDEVCVNPYHYQRVETPVLPPVLVPRHTEILTELPPLDDYTHSIPENTNFPAGIEPQSNYIPETPPPGYISEDGETSDQQLNQSMDTGSPAELSPTTLSPVNHSLDLQPVTYSEPAFWCSIAYYELNQRVGETFHASQPSLTVDGFTDPSNSERFCLGLLSNVNRNATVEMTRRHIGRGVRLYYIGGEVFAECLSDSAIFVQSPNCNQRYGWHPATVCKIPPGCNLKIFNNQEFAALLAQSVNQGFEAVYQLTRMCTIRMSFVKGWGAEYRRQTVTSTPCWIELHLNGPLQWLDKVLTQMGSPSVRCSSMS
Flag-SMAD4, Q13485
  binding: binds

B2: Flag-SMAD4, Q13485 1-552 (protein, UniProt Q13485 1-552, looked up, not shown: small tags and cut ends)
chain: MDNMSITNTPTSNDACLSIVHSLMCHRQGGESETFAKRAIESLVKKLKEKKDELDSLITAITTNGAHPSKCVTIQRTLDGRLQVAGRKGFPHVIYARLWRWPDLHKNELKHVKYCQYAFDLKCDSVCVNPYHYERVVSPGIDLSGLTLQSNAPSSMMVKDEYVHDFEGQPSLSTEGHSIQTIQHPPSNRASTETYSTPALLAPSESNATSTANFPNIPVASTSQPASILGGSHSEGLLQIASGPQPGQQQNGFTGQPATYHHNSTTTWTGSRTAPYTPNLPHHQNGHLQHHPPMPPHPGHYWPVHNELAFQPPISNHPAPEYWCSIAYFEMDVQVGETFKVPSSCPIVTVDGYVDPSGGDRFCLGQLSNVHRTEAIERARLHIGKGVQLECKGEGDVWVRCLSDHAVFVQSYYLDREAGRAPGDAVHKIYPSAYIKVFDLRQCHRQMQQQAATAQAAAAAQAAAVAGNIPGPGSVGGIAPAISLSAAAGIGVDDLRRLCILRMSFVKGWGPDYPRQSIKETPCWIEIHLHRALQLLDEVLHTMPIADPQPLD
HA-SMAD2, Q15796
  binding: binds
